From PubChem BioAssay (EPA / NIEHS)
The inconclusive results got no clear call from the source; some entries with a clear call stand among them for comparison. Potencies beside an inconclusive call are fits to weak or partial responses and may not hold up. The source holds several records for some structures; these can differ, active in one and inactive in another. Calls of active or inactive are those of the source. The calls were made as follows: active = hit-call score of the fitted dose curve at least 0.9, where 1 is the maximum; inconclusive = response in the unintended direction; inactive = score below 0.9.

Chains of the proteins cited; added tags and fusions are not shown. Lines headed by an entry give the natural chain unless they say otherwise; changes in a name come on top.
UniProt P28702: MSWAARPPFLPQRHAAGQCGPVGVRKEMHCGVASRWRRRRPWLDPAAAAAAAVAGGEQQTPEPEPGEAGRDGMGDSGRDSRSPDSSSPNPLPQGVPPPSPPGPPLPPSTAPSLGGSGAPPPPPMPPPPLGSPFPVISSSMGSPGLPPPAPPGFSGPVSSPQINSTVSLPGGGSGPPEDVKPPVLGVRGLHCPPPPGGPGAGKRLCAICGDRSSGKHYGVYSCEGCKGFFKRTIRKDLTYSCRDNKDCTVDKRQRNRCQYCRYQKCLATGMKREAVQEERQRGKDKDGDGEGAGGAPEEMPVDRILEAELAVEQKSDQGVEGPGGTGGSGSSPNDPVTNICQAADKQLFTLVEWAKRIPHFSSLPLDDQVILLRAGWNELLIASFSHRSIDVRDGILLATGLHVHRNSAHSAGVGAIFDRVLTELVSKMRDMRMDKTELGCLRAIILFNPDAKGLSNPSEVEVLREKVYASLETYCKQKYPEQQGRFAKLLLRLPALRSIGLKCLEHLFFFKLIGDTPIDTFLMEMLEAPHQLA

The molecules below were run against human Retinoid X Receptor beta (RXRb), RXRB (gene 6257) (UniProt P28702) (assay: ATG_RXRb_TRANS: Attagene TRANS-FACTORIAL HepG2 Assay for human Retinoid X Receptor beta (RXRb) (AID 2283013)).
Method: ATG_TRANS is a cell-based, multiplexed-readout assay that uses HepG2, a human liver cell line, with measurements taken at 24 hours after chemical dosing in a 24-well plate.ATG_RXRb_TRANS is one of 30 assay component(s) measured or calculated from the ATG_TRANS assay. It is designed to make measurements of mRNA induction, a form of inducible reporter, as detected with fluorescence intensity signals by Reverse transcription polymerase chain reaction (RT-PCR) and Capillary electrophoresis technology.Data from the assay component ATG_RXRb_TRANS was analyzed into 1 assay endpoint. This assay endpoint, ATG_RXRb_TRANS, was analyzed in the positive analysis fitting direction relative to DMSO as the negative control and baseline of activity. Using a type of inducible reporter, measures of mRNA for gain-of-signal activity can be used to understand the reporter gene at the transcription factor-level as they relate to the gene RXRB. Furthermore, this assay endpoint can be referred to as a primary readout, because this assay has produced multiple assay endpoints where this one serves a reporter gene function. To generalize the intended target to other relatable targets, this assay endpoint is annotated to the nuclear receptor intended target family, where the subfamily is non-steroidal.
Human liver HepG2 cells are transiently transfected with multiple reporter transcription units (MRTUs) in 6-well plates using FuGene 6 reagent (Roche; 3 ml FuGene/1 mg DNA). The MRTU constructs are regulated by a cis-regulating element (promoter). […] A major difference between the CIS and TRANS system is that in CIS activities of endogenous TFs are measured, whereas the TRANS assay evaluates changes in activities of exogenous, chimeric NR-Gal4 proteins. […] At the end of 24 hour incubation, total RNA was isolated using TriZol reagent (Invitrogen). The isolated RNA is then reverse-transcribed using oligo(dT) primer and Mo-MLV reverse transcriptase (Invitrogen) with DNAse I (Ambion) treatment for 30 min. The one-tenth of the produced cDNA was amplified by PCR using Taq DNA polymerase (Invitrogen) and two reporter sequence-specific primers. The PCR products were fluorescently labeled by primer extension with 6-arboxyfluorescein (6-FAM) 5'-labeled reporter sequence-specific primer (2 min at 95 C, 20 s at 68 C and 10 min at 72 C) and these products were digested with 5U of HpaI (New England Biolabs) for 2h at 37 C. The fragments were purified using Qiaquick PCR columns (Qiagen), analyzed on an ABI 3130xL genetic analyzer (Applied Biosystems) with peak positions identified by using a set of X-rhodamine (ROX)-labeled MapMarker1000 molecular weight standards (BioVentures). The raw capillary electrophoresis data was processed using Attagraph software (Attagene).

Compound	outcome	AC50
COc1cc([N+](=O)[O-])ccc1N	inactive	
Cc1ccc2oc(=O)ccc2c1	inactive	
O=C(O)c1cccnc1C(=O)O	inactive	
OC1C(O)C(O)C(O)C(O)C1O (stereo not given)	inactive	
CN(C)C(=O)Nc1ccc(Cl)c(Cl)c1	inactive	inconclusive: 50 µM
CCCCCCCCCCCCCCCCOS(=O)(=O)O		active: 14.6 µM
COc1ccc2nc(N)sc2c1		inconclusive: 100 µM
CCCCOCCOC(=O)COc1ccc(Cl)cc1Cl		inconclusive: 4.54 µM
Nc1cccc(S(=O)(=O)c2cccc(N)c2)c1		inconclusive: 182 µM
O=C(c1ccccc1)c1ccc(O)cc1O		active: 35 µM
Cc1ccc(S)cc1		inconclusive: 26 µM
CCCCc1ccc2ccccc2c1S(=O)(=O)O		active: 77.1 µM
Oc1cc2ccccc2cc1O		inconclusive: 14.4 µM
OCC(CO)(CO)CO	inactive	

Compound	outcome	AC50
Cc1cc(C(=C2C=CC(=Nc3ccc(S(=O)(=O)O)cc3)C=C2)c2ccc(Nc3ccc(S(=O)(=O)O)cc3)cc2)cc(S(=O)(=O)O)c1N		inconclusive: 70 µM
CCCCCCCCCCCCCCCCCCOS(=O)(=O)O		active: 34.3 µM
c1ccc2ccccc2c1		active: 38.9 µM
CCN(CC)c1ccc(N=Nc2ccccc2)cc1	inactive	
C=CC(C)(CCC=C(C)C)OC(=O)C(C)C (stereo not given)		active: 57.4 µM
CC(C)(C)c1ccc(N)cc1	inactive	
CCCCNc1ccccc1	inactive	
CCCOC(=O)c1ccc(O)cc1	inactive	
Nc1ncn([C@@H]2O[C@H](CO)[C@@H](O)[C@H]2O)c(=O)n1		inconclusive: 0.0823 µM
CC(C)=CC1CC(C)CCO1 (stereo not given)		inconclusive: 19.8 µM
CCCCCCCCC(=O)O		active: 65.3 µM
CCCCCc1ccc(Cl)cc1	inactive	
CCCC(=O)OCCC(C)C		inconclusive: 0.12 µM
CCCCCCCOC(=O)c1ccc(O)cc1		active: 11.1 µM

For reference, some entries already given.
Compound	outcome	AC50
CCCCCCCCCCCCCCCCCCOS(=O)(=O)O		active: 34.3 µM
c1ccc2ccccc2c1		active: 38.9 µM
CCN(CC)c1ccc(N=Nc2ccccc2)cc1	inactive	
C=CC(C)(CCC=C(C)C)OC(=O)C(C)C (stereo not given)		active: 57.4 µM
CC(C)(C)c1ccc(N)cc1	inactive	
